Test results published in PubChem BioAssay AID493014 (National Center for Advancing Translational Sciences (NCATS), 2011).
This is one part of the list. The main result of the screen is listed elsewhere. These columns were measured beside it and carry no call. The list favours compounds with an active or inconclusive main result. Potencies come from curve fits of mixed quality, noted in brackets.

Test: qHTS Assay to Find Inhibitors of Chronic Active B-Cell Receptor Signaling
Conditions: ABC-DLBCL IkBa-CBG/CBR reporter, luminescence ratio (green luciferase fused to IkBa over red control in TMD8 lymphoma cells), 4 h
Outline: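 TMD8 ABC-DLBCL cells carrying doxycycline-inducible green luciferase fused to IkappaBalpha plus unfused red luciferase were exposed to compounds (up to 46 uM) for 4 hrs at 37C. Activity came from the overlap-corrected green/red luminescence ratio.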

[1] = measured here: CBR red luminescence, cell number
[2] = measured here: IkBa-CBG green luminescence

Structure (SMILES) | AC50 [1] | AC50 [2]
N#Cc1ccc(C(=O)Nc2ccc([N+](=O)[O-])cc2)c(F)c1 | 0.282 µM [rising, full curve, poor fit] | –
COc1ccc(NS(=O)(=O)c2cc(NC(=O)c3ccc(Cl)cc3)ccc2N2CCOCC2)cc1 | 2.06 µM [rising, full curve] | –
O=C(c1cc(-c2ccc(Cl)cc2)n(-c2ccc(Cl)c(Cl)c2)n1)N1CCOCC1 | 0.259 µM [rising, full curve, poor fit] | –
Fc1ccc(Nc2ccc3ccccc3n2)c(F)c1 | 2.51 µM [rising, partial curve] | –
CCc1cccc2sc(N3CCN(C(=O)c4ccc([N+](=O)[O-])o4)CC3)nc12 | 29.1 µM [falling, single point] | –
COc1ccc(OCCN2CCN(S(=O)(=O)c3ccccc3C#N)CC2)cc1 | 6.51 µM [rising, single point] | 3.66 µM [falling, partial curve, poor fit]
O=C(Oc1ccc(N(C(=O)c2ccncc2)S(=O)(=O)c2ccc(Cl)cc2)cc1)c1ccncc1 | 0.794 µM [falling, full curve] | –
CN(CC(=O)NCCCN1CCOCC1)S(=O)(=O)c1ccc(Br)cc1 | 6.51 µM [falling, partial curve] | 29.1 µM [rising, partial curve, poor fit]
O=C(C[n+]1cc(-c2ccc(Cl)cc2)n2c1CCC2)N1c2ccccc2Sc2ccccc21 | 11.6 µM [falling, partial curve] | –
COc1ccsc1C(=O)N1CCN(Cc2ccc3c(c2)OCO3)CC1 | 0.461 µM [rising, partial curve, poor fit] | –
COc1cc(C(=O)Nc2ccccc2NC(=O)c2cc(OC)c(OC)c(OC)c2)cc(OC)c1OC | 0.316 µM [rising, full curve] | –
Cc1ccc(Oc2nc3c(c(=O)n(C)c(=O)n3C)n2C)cc1C | 7.08 µM [falling, partial curve, poor fit] | –
CC1CCN(CC(=O)Nc2sc3c(c2C#N)CCC3)CC1 | 0.631 µM [rising, full curve, poor fit] | –
CCCn1nnc(NC(=O)c2ccc3c(c2)OCO3)n1 | 1.12 µM [falling, full curve, poor fit] | –
COc1ccc(C2(CNC(=O)c3ccc(C)cc3)CCOCC2)cc1 | 22.4 µM [rising, single point] | –
CCOC(=O)c1c(C)[nH]c(C(=O)CN2C(=O)NC(C)(c3ccc(C)cc3)C2=O)c1C (stereo unspecified) | 6.31 µM [falling, partial curve, poor fit] | –
c1ccc(C2=Nn3c(nnc3-c3cccnc3)SC2)cc1 | 25.1 µM [falling, single point] | –
c1ccc2c(c1)Cc1cc(CN3CCOCC3)ccc1-2 | 14.6 µM [rising, partial curve, poor fit] | –
CC(=O)c1nc(N2C(=O)C3CC=C(C)CC3C2=O)sc1C (stereo unspecified) | 29.1 µM [falling, single point] | –

Among those listed so far, three contain a cyano group:
Structure (SMILES) | AC50 [1] | AC50 [2]
N#Cc1ccc(C(=O)Nc2ccc([N+](=O)[O-])cc2)c(F)c1 | 0.282 µM [rising, full curve, poor fit] | –
COc1ccc(OCCN2CCN(S(=O)(=O)c3ccccc3C#N)CC2)cc1 | 6.51 µM [rising, single point] | 3.66 µM [falling, partial curve, poor fit]
CC1CCN(CC(=O)Nc2sc3c(c2C#N)CCC3)CC1 | 0.631 µM [rising, full curve, poor fit] | –

(cont.)

Structure (SMILES) | AC50 [1] | AC50 [2]
O=C(O)CC/C(=N\NC(=O)c1ccccc1)c1cccs1 | 5.01 µM [falling, partial curve] | –
CC(C)c1cc(CN2CCN(Cc3ccc(F)c(F)c3)C(CCO)C2)[nH]n1 (stereo unspecified) | 6.31 µM [falling, single point] | –
C=CCC[C@H](Cc1ccc(F)cc1)C(=O)OC[C@H](Cc1c[nH]c2ccccc12)NC(=O)[C@@H](CC=C)CC(=O)N[C@H](CO)Cc1ccccc1 | 18.4 µM [falling, partial curve, poor fit] | –
CCN(CC)CCn1c(SCC(=O)Nc2ccc(F)cc2)nc2c(sc3ccccc32)c1=O | 7.08 µM [falling, partial curve] | –
CCC/C(=N\NC(=O)c1cccc(C)c1)c1ccccc1 | 14.6 µM [falling, partial curve] | –
Cc1ccc(SCCNC(=O)c2ccc(C)c(S(=O)(=O)Nc3cccc(C)c3)c2)cc1 | 28.2 µM [falling, single point] | –
C/C(=N\NC(=O)c1csc(C)c1C)c1ccco1 | 18.4 µM [falling, partial curve, poor fit] | –
Cc1ccccc1Nc1cc(C(=O)NCCCN2CCN(c3cccc(Cl)c3)CC2)c2ccccc2n1 | 10 µM [falling, partial curve, poor fit] | –
CCCCc1ccc(-c2csc(/C(C#N)=C/c3ccco3)n2)cc1 | 8.2 µM [rising, partial curve, poor fit] | –
CC(C)(C)c1ccc(C(=O)NCC(=O)N2CCC3(CC2)NCCc2[nH]cnc23)cc1 | 3.16 µM [falling, partial curve, poor fit] | –
O=C(Nc1cccc(Cl)c1)C1C2CCC3C(CCC21)C3(Cl)Cl (stereo unspecified) | 8.2 µM [falling, partial curve, poor fit] | 14.6 µM [rising, partial curve, poor fit]
COc1ccc(-c2cc(C(=O)N/N=C/c3ccc(OC)c(COCC(F)(F)C(F)F)c3)c3ccccc3n2)c(OC)c1 | 0.447 µM [rising, full curve, poor fit] | –
CCOC(=O)C1=NN(c2ccccc2C)C2=NC(C)=C(C(=O)OC)C(c3cccs3)N12 (stereo unspecified) | 10.3 µM [falling, partial curve] | 32.6 µM [rising, partial curve, poor fit]
Cc1ccc(C)c(CN2CCC(n3nccc3NC(=O)CCCc3ccccc3)CC2)c1 | 3.55 µM [rising, single point] | –
COc1ccc(CCNC(=O)c2cccs2)cc1 | 15.8 µM [falling, single point] | –
CCS(=O)(=O)N1CCC(C(=O)Oc2ccccc2Cl)CC1 | 22.4 µM [rising, partial curve, poor fit] | –
Cc1cc2cc(CN(Cc3cccs3)C(=S)NCc3ccco3)c(=O)[nH]c2cc1C | 6.51 µM [falling, partial curve, poor fit] | –
O=C(Oc1oc(-c2ccco2)nc1C=Nc1ccc(Cl)cc1)c1ccco1 | 11.2 µM [falling, partial curve, poor fit] | –
